Results from US20220162182A1, “KINASE INHIBITOR COMPOUNDS AND COMPOSITIONS AND METHODS OF USE” (ICAHN SCHOOL OF MEDICINE AT MOUNT SINAI, priority 2018, published 2022).

What was measured:
[1] = target: DYRK1A (Homo sapiens, UniProt Q13627); assay: KINOMEscan DYRK1A binding assay (DiscoverX), Kd determination; conditions: read-out: Kd (nM), DYRK1A Binding Activity, eleven serial three fold dilutions, highest concentration 60 μM, several values in a cell = repeat determinations
Experimental: Compounds were tested for DYRK1A binding activity at DiscoverX. DiscoverX uses proprietary KINOMEscan® Assay (Fabian et al., “A Small Molecule-kinase Interaction Map for Clinical Kinase Inhibitors,” Nat. Biotechnol. 23(3):329-336 (2005), which is hereby incorporated by reference in its entirety). Compounds were screened for DYRK1A activity at a single concentration of 3 μM in duplicates. Similarly, the dissociation constant Kd of the hit compounds from the initial screening was determined at DiscoverX using their proprietary KINOMEscan® Assay. Kd values are determined using eleven serial three fold dilutions with the highest concentration of 60 μM.

[2] = target: DYRK1/DYRK1A (Homo sapiens, UniProt Q13627); assay: DYRK1/DYRK1A IC50 assay (Reaction Biology Corp.); conditions: read-out: IC50 (nM), DYRK1A; DYRK1/DYRK1A assay from Reaction Biology Corp.

| Structure (SMILES) | Kd [1] [nM] | IC50 [2] [nM] |
| --- | --- | --- |
| O=c1[nH]c2ccc(-c3cncc(NCc4cccc(Cl)c4)c3)cc2[nH]1 | 1.3 | – |
| O=c1[nH]c2ccc(-c3cncc(NCc4c[nH]cn4)c3)cc2[nH]1 | – | 15.2 |

Structures were worked out from names or drawings and are uncertain.
